PubChem BioAssay AID1259308 – NCATS, 2017
Shown is one part, drawn at random, of about 59,000 reagents. About 1,510 of all reagents (2.6%) were called active. 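Calls use total luciferase alone and ignore viability, so some active siRNAs may act by altering cell number.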 Unmarked entries are inactive. Reagents against one gene are numbered here.

Assay: 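Genes whose loss raises luciferase production in HEK293 cells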 (primary screen)
Cells: human HEK293 embryonic kidney cells stably expressing firefly luciferase (HEK-CMV-Luc2-Hygro)
Reagents: single siRNA against human genes, 0.8 pmol siRNA per well
Time to read-out: 72 h
Detection: 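Luciferase light (ONE-Glo) measured on one replicate plate set and viability (CellTiter-Glo) on the other, scaled to a negative control siRNA, with robust z-scores and luciferase per cell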
Scale: total luciferase, z-score and total luciferase, % of control: higher = more reporter protein produced; luciferase per cell, z-score: higher = more reporter output per viable cell; viable cells, % of control: higher = more viable cells
Active means: 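Active when the median/MAD z-score for overall luciferase is greater than 3; a gene was taken forward for validation with new siRNAs if at least two of its three siRNAs passed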
Calls: active = raised luciferase; inactive = no rise

no.	target	siRNA no.	total luciferase, z-score	total luciferase, % of control	luciferase per cell, z-score	viable cells, % of control
1	ANKRD22	1	-2	42.1	-2.69	95.7
2	ANKRD22	2	-1.21	57.7	-1.32	91.3
3	ANKRD22	3	0.718	96.2	0.865	85.6
4	SEC11A	1	-0.707	67.8	-0.382	83.8
5	SEC11A	2	-1.62	49.8	-1.07	73.7
6	SEC11A	3	-0.477	72.4	-0.638	95.7
7	ADIRF	1	-0.0604	80.7	-0.739	110
8	ADIRF	2	-0.338	75.2	-0.941	108
9	ADIRF	3	0.45	90.8	0.34	92.8
10	UBR7	1	0.281	87.5	0.129	94.5
11	UBR7	2	0.296	87.8	-0.154	102
12	UBR7	3	0.176	85.4	0.314	87.9
13	CSTF2	1	0.673	95.3	-0.505	122
14	CSTF2	2	0.862	99	0.54	96
15	CSTF2	3	0.611	94	0.31	96.9
16	UNC93B2	1	-0.218	77.6	-0.164	90.5
17	UNC93B2	2	-0.213	77.6	-0.315	94.3
18	UNC93B2	3	2.25	127	1.05	107
19	UNC93B2	4	-0.323	75.5	-0.779	104
20	UNC93B2	5	3.38 (active)	149	2.79	79.9
21	UNC93B2	6	3.26 (active)	147	2.94	75.7
22	RB1	1	0.000771	81.9	-0.542	106
23	RB1	2	-1.64	49.3	-2.2	98.4
24	RB1	3	0.732	96.4	0.379	97.5
25	SMLR1	1	-1.24	57.1	-0.854	80
26	SMLR1	2	0.616	94.1	1.2	76.6
27	SMLR1	3	0.417	90.2	0.553	87.1
28	CRY2	1	-0.598	70	-0.734	94.9
29	CRY2	2	-0.616	69.6	-0.783	95.6
30	CRY2	3	0.82	98.2	0.844	87.9
31	AMY2A	1	-0.485	72.2	-0.805	99.8
32	AMY2A	2	-0.41	73.7	-0.674	98.4
33	AMY2A	3	-0.911	63.8	-1	92.7
34	GPBP1L1	1	-0.364	74.6	-0.925	106
35	GPBP1L1	2	0.897	99.7	0.645	94
36	GPBP1L1	3	0.488	91.6	0.0869	100
37	UNC80	1	0.413	90.1	0.808	81.4
38	UNC80	2	0.921	100	1.08	84.2
39	UNC80	3	-1.48	52.5	-0.263	62.9
40	EBF1	1	0.401	89.9	0.186	95.6
41	EBF1	2	-1.55	51.1	-1.8	91.6
42	EBF1	3	0.92	100	0.773	91.3
43	NIPAL2	1	0.453	90.9	0.506	88.9
44	NIPAL2	2	1.18	105	0.668	98.8
45	NIPAL2	3	0.103	83.9	0.322	86.2
46	RGS21	1	0.149	84.9	0.219	89.5
47	RGS21	2	0.725	96.3	1.11	80.4
48	RGS21	3	2.6	134	1.7	95.5
49	SPMIP5	1	-0.147	79	-0.501	101
50	SPMIP5	2	-0.623	69.5	-0.121	80.2
51	SPMIP5	3	-1.94	43.3	-2.1	84
52	LINC00545	1	-1.47	52.6	-1.75	93.1
53	LINC00545	2	-2.57	30.8	-0.952	44.3
54	LINC00545	3	-0.531	71.3	-0.929	102
55	MIR503HG	1	2.81	138	1.92	92.7
56	MIR503HG	2	2.56	133	2.54	76
57	MIR503HG	3	-0.73	67.4	-1.05	99.2
58	SERP1	1	0.913	100	0.457	99.1
59	SERP1	2	-0.915	63.7	-0.896	90.1
60	SERP1	3	-0.26	76.7	-0.396	95.1
61	LENG9	1	-0.529	71.4	0.113	77.4
62	LENG9	2	-0.458	72.8	-0.668	97
63	LENG9	3	-0.7	68	0.247	71.2
64	GPR151	1	1.83	118	1.67	85.1
65	GPR151	2	0.0927	83.7	-0.238	99.6
66	GPR151	3	0.11	84.1	-0.838	117
67	GBA3	1	0.838	98.6	0.528	95.8
68	GBA3	2	2.11	124	1.36	96.8
69	GBA3	3	-0.0314	81.3	-0.691	109
70	OSER1	1	-1.01	61.8	-1.06	91.2
71	OSER1	2	-0.485	72.2	-0.938	103
72	OSER1	3	-0.392	74.1	-0.325	90.2
73	COX7A1	1	-0.332	75.3	-0.697	101
74	COX7A1	2	-0.685	68.3	-0.243	81.3
75	COX7A1	3	-0.91	63.8	-0.762	87.1

Active calls, of those listed so far:
target	siRNA no.	total luciferase, z-score	total luciferase, % of control	luciferase per cell, z-score	viable cells, % of control
UNC93B2	5	3.38 (active)	149	2.79	79.9
UNC93B2	6	3.26 (active)	147	2.94	75.7
